Data published in PubChem BioAssay AID504834 (National Center for Advancing Translational Sciences (NCATS), 2011).
Hit rate of the full screen: of about 320,000 compounds, about 22,000 (6.9%) were called active. The shares of active, inactive and inconclusive entries below differ from those in the screen. Calls follow the shape of the dose curve; as a rule, active = well fitted inhibition curve with a large enough effect; inconclusive = small, poorly fitted or top-dose-only effect, or another doubt; inactive = no such curve, though single readings can be large or run the other way. Potencies beside an inconclusive call are fits to weak or partial responses and may not hold up.

Assay: Primary qHTS for delayed death inhibitors of the malarial parasite plastid, 96 hour incubation
Settings: P. falciparum luciferase reporter growth; series mostly up to 28.7 µM; activity change, negative = inhibition: at the top concentration
Procedure, shortened: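 P. falciparum expressing integrated firefly luciferase, in erythrocytes at 2% hematocrit, 0.05% parasitemia, incubated with compounds 96 h at 37 C, 5% CO2. Growth inhibition read as loss of luminescence; two-generation exposure targets delayed-death apicoplast inhibitors.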
% is scaled to controls: 0 for no effect and ±100 for the full control effect; potency is read from the fitted curve at half-maximal effect.

Row | SMILES | Potency | activity change, negative = inhibition
1 | CN(C)CCNC(=O)Cc1c(C(=O)O)n(C)c2ccccc12 | inconclusive: 0.0185 µM [inhibitor, full curve, poor fit] | –
2 | COc1ccc(-c2cc(C(F)(F)F)c3c(=O)n(-c4ccccc4)[nH]c3n2)cc1 | inconclusive: 18.5 µM [inhibitor, single point] | –
3 | Cc1ccc(SCc2nc(-c3cccnc3)no2)cc1 | – | inactive: -24.7%
4 | CCCNC(=O)C1CC(=O)N(c2ccc(OCc3ccc(Cl)cc3)cc2)C1 (stereo not given) | – | inactive: 10.3%
5 | Cc1ccccc1S(=O)(=O)Nc1ncnc2ccccc12 | – | inactive: -6.13%
6 | COc1ccc(S(=O)(=O)N2CCC(C(=O)NC3CC3)CC2)cc1 | – | inactive: 14.8%
7 | Cc1cccc(N2CCN(S(=O)(=O)c3ccc4[nH]c(=O)c(=O)[nH]c4c3)CC2C)c1 (stereo not given) | inconclusive: 16.5 µM [inhibitor, single point] | –
8 | COc1ccc(CCNc2ccc(N3C(=O)CC(C)C3=O)cc2[N+](=O)[O-])cc1OC (stereo not given) | inconclusive: 18.5 µM [inhibitor, single point] | –
9 | COC(=O)C1=C(c2ccc(OC)c(OC)c2)C[C@@H]2CC[C@H]1N2C(=O)N1CCc2cc(OC)c(OC)cc2C1 | inconclusive: 4.15 µM [inhibitor, full curve] | –
10 | N#C/C(=C(/O)C(Cl)(Cl)Cl)c1nc2ccccc2[nH]1 | – | inactive: 35%
11 | Cc1noc(NS(=O)(=O)c2ccc(NC(=O)CSc3nnc4c(n3)[nH]c3ccccc34)cc2)c1C | inconclusive: 11.7 µM [inhibitor, single point] | –
12 | C=CCNC(=S)Nc1ccc2nsnc2c1 | inconclusive: 10.4 µM [inhibitor, single point] | –
13 | Cc1ccc2c(CN3CCN(S(=O)(=O)c4ccccc4C(F)(F)F)CC3)cc(=O)oc2c1C | inconclusive: 13.1 µM [inhibitor, partial curve, poor fit] | –
14 | O=C(c1cn2ccccc2n1)N1CCc2c([nH]c3ccccc23)C1c1ccccn1 (stereo not given) | inconclusive: 18.5 µM [inhibitor, single point] | –
15 | CCC1=C(OC(=O)N(CC)CC)N2C(=O)OC(=NCCOC)[C@]2(Cc2ccccc2)[C@H]2C1=CC[C@H]1C(=O)N(CC(=O)OC)C(=O)[C@H]12 | inconclusive: 11.7 µM [inhibitor, single point] | –
16 | O=S(=O)(NCCCCCCNS(=O)(=O)c1c(F)cccc1F)c1ccc2c(c1)OCCO2 | inconclusive: 11.7 µM [inhibitor, partial curve, poor fit] | –
17 | COc1ccc(O)c(C(=O)CC(=O)c2ccccc2C)c1 | – | inactive: 232%
18 | Cc1cccc(-c2cnn(-c3cccc([N+](=O)[O-])c3)c2N)c1 | – | inactive: 96.5%
19 | COC(=O)c1sc2nc(CN3CCOCC3)nc(N3CCOCC3)c2c1C | – | inactive: 22.2%
20 | O=C(NCCN1CCNC1=O)C1CCC(=O)N(Cc2cccc(C(F)(F)F)c2)C1 (stereo not given) | inconclusive: 18.5 µM [inhibitor, single point] | –
21 | O=C(NCCCCNC(=O)c1ccc(F)cc1)c1ccc(F)cc1 | active: 2.62 µM | –
22 | O=C(O)/C=C/C(=O)NCCC1=CCCCC1 | inconclusive: 2.94 µM [inhibitor, full curve, poor fit] | –
23 | Cc1nn(Cc2ccc(Cl)c(Cl)c2)c(C)c1NC(=O)c1noc2c1CCCCC2 | active: 6.57 µM | –

Row | SMILES | Potency | activity change, negative = inhibition
24 | CC(=O)c1cccc(NC(=S)NC(=O)CC(C)(C)C)c1 | – | inactive: -15.2%
25 | O=C(O)CSc1nnc(-c2ccccc2O)n1Cc1ccccc1 | – | inactive: 0.613%
26 | COc1ccc(N2CC(C(=O)Nc3nnc(SCC(=O)c4ccccc4)s3)CC2=O)cc1 (stereo not given) | inconclusive: 18.5 µM [inhibitor, single point] | –
27 | N#Cc1ccc(NC(=O)Cn2cnc(S(=O)(=O)N3CCCCC3)c2)cc1 | inconclusive: 8.28 µM [inhibitor, partial curve] | –
28 | S=C1NC2=C(CCC/C2=C\c2ccccc2)C(c2ccccc2)N1 (stereo not given) | inconclusive: 0.0928 µM [inhibitor, full curve] | –
29 | CCOC(=O)C(NC(=O)c1ccccc1)(OCC1(CC)COC1)C(F)(F)F (stereo not given) | – | inactive: -3.92%
30 | Nc1nc(Cl)cc(N2CCOCC2)n1 | inconclusive: 2.62 µM [inhibitor, single point] | –
31 | CCCCCCn1c(SCC(=O)c2c(N)n(C)c(=O)n(C)c2=O)nc2ccccc21 | active: 0.928 µM | –
32 | O=C(NC1=NCCS1)c1ccc(Cl)c(S(=O)(=O)N2CCOCC2)c1 | – | inactive: -59.4% [at 5.75 µM]
33 | COc1ccc(S(=O)(=O)N2CCC(C(=O)NCC3CCCCC3)CC2)cc1 | – | inactive: 34.7%
34 | COCCNC(=O)C1CCC(=O)N(c2ccc(OC)cc2)C1c1ccc(OC)c(OC)c1 (stereo not given) | inconclusive: 9.28 µM [inhibitor, single point] | –
35 | Cc1c(NC2=NC3(CCCCC3)Cc3ccccc32)c(=O)n(C)n1-c1ccccc1 | – | inactive: -13.6%
36 | O=[N+]([O-])c1ccc(C(=Nc2cccc3ccccc23)N2CCOCC2)cc1 | inconclusive: 13.1 µM [inhibitor, single point] | –
37 | CCN(Cc1ccccc1)S(=O)(=O)c1ccc(C(=O)N(CCCN(C)C)c2nc3c(C)c(C)ccc3s2)cc1 | inconclusive: 18.5 µM [inhibitor, single point] | –
38 | CS(=O)(=O)N(CC(O)Cn1c2ccccc2c2ccccc21)c1ccccc1 (stereo not given) | inconclusive: 10.4 µM [inhibitor, single point] | –
39 | O=C1NC(=NCc2ccccc2)S/C1=C\c1ccccc1 | inconclusive: 11.7 µM [inhibitor, partial curve, poor fit] | –
40 | O=C(CN1CCC2(CC1)OCCO2)c1ccc2cc[nH]c2c1 | – | inactive: 21%
41 | CCOC(=O)c1sc(=S)n(-c2ccc(OC)cc2)c1C | inconclusive: 13.1 µM [inhibitor, single point] | –
42 | CN1C(=O)N(c2nnc(C(C)(C)C)s2)C(=O)C1c1ccccc1 (stereo not given) | – | inactive: 30.2%
43 | Cc1ccc(OCCn2cc(/C=C3\C(=O)NN(c4ccccc4)C3=O)c3ccccc32)cc1 | inconclusive: 18.5 µM [inhibitor, single point] | –
44 | Cc1cccn2c(=O)c(C(=O)NC3CCCCC3)c(O)nc12 | inconclusive: 2.33 µM [inhibitor, partial curve, poor fit] | –
45 | CCOC(=O)c1c(C)[nH]c(C)c1-c1ccccc1OC | – | inactive: 5.57%

Quoted from the listing.
Entry for Cc1cccn2c(=O)c(C(=O)NC3CCCCC3)c(O)nc12 under Potency: inconclusive: 2.33 µM [inhibitor, partial curve, poor fit]
Entry for Cc1cccc(-c2cnn(-c3cccc([N+](=O)[O-])c3)c2N)c1 under activity change, negative = inhibition: inactive: 96.5%
Entry for N#C/C(=C(/O)C(Cl)(Cl)Cl)c1nc2ccccc2[nH]1 under activity change, negative = inhibition: inactive: 35%
Entry for O=C(NC1=NCCS1)c1ccc(Cl)c(S(=O)(=O)N2CCOCC2)c1 under activity change, negative = inhibition: inactive: -59.4% [at 5.75 µM]
